For 64 molecules, binding results are on record in publication PMC7461561.

Protein sequences, listed by entry. Tags and fused reporters are not part of them. Lines headed by an entry give the natural chain unless they say otherwise; changes in a name come on top. Residues count along the entry.
UniProt O60260: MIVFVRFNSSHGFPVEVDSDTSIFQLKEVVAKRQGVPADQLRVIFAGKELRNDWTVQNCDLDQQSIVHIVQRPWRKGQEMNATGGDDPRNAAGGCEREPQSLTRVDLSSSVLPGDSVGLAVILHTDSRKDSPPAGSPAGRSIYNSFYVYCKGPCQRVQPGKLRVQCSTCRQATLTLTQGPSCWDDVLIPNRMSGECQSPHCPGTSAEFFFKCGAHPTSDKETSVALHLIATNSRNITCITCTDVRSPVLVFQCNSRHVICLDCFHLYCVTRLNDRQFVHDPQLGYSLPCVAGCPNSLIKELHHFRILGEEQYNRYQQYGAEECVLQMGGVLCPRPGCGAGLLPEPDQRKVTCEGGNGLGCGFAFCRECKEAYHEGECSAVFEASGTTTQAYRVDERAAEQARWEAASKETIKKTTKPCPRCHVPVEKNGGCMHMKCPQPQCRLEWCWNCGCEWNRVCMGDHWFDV
UniProt P61604: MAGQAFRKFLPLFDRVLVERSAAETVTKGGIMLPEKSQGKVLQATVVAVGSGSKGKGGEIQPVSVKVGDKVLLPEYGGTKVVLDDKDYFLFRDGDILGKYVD
UniProt Q92688: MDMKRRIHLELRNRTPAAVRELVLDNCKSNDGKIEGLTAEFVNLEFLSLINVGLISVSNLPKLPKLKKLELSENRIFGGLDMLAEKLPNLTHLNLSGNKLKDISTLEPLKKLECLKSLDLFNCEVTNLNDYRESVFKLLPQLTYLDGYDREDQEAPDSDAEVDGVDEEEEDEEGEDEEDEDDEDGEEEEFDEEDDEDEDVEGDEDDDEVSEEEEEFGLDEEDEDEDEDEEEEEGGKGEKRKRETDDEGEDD
UniProt P00488: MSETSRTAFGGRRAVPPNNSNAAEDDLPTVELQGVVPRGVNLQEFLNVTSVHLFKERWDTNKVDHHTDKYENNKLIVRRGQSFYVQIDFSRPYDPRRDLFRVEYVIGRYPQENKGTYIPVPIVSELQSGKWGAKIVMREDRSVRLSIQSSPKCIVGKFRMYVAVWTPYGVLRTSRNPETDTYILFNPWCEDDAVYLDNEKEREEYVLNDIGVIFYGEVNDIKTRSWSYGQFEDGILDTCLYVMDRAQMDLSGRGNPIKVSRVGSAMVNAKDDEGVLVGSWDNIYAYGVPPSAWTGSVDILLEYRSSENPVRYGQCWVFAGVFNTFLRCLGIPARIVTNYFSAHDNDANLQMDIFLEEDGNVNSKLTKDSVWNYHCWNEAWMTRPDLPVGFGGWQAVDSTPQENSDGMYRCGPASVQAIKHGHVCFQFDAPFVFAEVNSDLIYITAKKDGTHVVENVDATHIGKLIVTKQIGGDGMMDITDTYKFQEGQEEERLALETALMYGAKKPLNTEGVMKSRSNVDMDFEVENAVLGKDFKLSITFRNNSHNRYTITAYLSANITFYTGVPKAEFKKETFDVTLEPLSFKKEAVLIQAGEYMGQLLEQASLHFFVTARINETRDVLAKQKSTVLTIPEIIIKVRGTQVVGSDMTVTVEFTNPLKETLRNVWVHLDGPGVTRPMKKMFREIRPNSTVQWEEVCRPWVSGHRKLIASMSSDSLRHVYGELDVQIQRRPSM
UniProt O00483: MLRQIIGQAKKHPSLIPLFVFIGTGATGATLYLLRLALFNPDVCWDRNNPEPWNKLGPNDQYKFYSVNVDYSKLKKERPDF
UniProt Q86UX7: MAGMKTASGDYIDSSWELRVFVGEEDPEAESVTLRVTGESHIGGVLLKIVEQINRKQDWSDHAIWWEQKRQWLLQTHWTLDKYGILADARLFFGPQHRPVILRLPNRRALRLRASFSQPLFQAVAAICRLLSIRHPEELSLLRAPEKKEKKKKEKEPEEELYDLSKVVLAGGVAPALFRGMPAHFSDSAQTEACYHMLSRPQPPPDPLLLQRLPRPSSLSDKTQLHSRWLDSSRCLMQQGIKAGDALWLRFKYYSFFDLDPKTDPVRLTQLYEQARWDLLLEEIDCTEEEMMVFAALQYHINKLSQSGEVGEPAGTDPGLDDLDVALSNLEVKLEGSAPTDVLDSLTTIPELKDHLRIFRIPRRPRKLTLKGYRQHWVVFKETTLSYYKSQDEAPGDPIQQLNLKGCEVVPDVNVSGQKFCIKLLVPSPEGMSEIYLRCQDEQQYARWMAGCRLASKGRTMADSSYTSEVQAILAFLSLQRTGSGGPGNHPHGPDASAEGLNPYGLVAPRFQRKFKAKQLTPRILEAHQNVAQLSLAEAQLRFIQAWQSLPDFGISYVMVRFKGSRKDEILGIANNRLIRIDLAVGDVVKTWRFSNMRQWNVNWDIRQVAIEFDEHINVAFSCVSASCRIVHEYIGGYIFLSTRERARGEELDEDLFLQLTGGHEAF
UniProt P02751, residues 32-2477: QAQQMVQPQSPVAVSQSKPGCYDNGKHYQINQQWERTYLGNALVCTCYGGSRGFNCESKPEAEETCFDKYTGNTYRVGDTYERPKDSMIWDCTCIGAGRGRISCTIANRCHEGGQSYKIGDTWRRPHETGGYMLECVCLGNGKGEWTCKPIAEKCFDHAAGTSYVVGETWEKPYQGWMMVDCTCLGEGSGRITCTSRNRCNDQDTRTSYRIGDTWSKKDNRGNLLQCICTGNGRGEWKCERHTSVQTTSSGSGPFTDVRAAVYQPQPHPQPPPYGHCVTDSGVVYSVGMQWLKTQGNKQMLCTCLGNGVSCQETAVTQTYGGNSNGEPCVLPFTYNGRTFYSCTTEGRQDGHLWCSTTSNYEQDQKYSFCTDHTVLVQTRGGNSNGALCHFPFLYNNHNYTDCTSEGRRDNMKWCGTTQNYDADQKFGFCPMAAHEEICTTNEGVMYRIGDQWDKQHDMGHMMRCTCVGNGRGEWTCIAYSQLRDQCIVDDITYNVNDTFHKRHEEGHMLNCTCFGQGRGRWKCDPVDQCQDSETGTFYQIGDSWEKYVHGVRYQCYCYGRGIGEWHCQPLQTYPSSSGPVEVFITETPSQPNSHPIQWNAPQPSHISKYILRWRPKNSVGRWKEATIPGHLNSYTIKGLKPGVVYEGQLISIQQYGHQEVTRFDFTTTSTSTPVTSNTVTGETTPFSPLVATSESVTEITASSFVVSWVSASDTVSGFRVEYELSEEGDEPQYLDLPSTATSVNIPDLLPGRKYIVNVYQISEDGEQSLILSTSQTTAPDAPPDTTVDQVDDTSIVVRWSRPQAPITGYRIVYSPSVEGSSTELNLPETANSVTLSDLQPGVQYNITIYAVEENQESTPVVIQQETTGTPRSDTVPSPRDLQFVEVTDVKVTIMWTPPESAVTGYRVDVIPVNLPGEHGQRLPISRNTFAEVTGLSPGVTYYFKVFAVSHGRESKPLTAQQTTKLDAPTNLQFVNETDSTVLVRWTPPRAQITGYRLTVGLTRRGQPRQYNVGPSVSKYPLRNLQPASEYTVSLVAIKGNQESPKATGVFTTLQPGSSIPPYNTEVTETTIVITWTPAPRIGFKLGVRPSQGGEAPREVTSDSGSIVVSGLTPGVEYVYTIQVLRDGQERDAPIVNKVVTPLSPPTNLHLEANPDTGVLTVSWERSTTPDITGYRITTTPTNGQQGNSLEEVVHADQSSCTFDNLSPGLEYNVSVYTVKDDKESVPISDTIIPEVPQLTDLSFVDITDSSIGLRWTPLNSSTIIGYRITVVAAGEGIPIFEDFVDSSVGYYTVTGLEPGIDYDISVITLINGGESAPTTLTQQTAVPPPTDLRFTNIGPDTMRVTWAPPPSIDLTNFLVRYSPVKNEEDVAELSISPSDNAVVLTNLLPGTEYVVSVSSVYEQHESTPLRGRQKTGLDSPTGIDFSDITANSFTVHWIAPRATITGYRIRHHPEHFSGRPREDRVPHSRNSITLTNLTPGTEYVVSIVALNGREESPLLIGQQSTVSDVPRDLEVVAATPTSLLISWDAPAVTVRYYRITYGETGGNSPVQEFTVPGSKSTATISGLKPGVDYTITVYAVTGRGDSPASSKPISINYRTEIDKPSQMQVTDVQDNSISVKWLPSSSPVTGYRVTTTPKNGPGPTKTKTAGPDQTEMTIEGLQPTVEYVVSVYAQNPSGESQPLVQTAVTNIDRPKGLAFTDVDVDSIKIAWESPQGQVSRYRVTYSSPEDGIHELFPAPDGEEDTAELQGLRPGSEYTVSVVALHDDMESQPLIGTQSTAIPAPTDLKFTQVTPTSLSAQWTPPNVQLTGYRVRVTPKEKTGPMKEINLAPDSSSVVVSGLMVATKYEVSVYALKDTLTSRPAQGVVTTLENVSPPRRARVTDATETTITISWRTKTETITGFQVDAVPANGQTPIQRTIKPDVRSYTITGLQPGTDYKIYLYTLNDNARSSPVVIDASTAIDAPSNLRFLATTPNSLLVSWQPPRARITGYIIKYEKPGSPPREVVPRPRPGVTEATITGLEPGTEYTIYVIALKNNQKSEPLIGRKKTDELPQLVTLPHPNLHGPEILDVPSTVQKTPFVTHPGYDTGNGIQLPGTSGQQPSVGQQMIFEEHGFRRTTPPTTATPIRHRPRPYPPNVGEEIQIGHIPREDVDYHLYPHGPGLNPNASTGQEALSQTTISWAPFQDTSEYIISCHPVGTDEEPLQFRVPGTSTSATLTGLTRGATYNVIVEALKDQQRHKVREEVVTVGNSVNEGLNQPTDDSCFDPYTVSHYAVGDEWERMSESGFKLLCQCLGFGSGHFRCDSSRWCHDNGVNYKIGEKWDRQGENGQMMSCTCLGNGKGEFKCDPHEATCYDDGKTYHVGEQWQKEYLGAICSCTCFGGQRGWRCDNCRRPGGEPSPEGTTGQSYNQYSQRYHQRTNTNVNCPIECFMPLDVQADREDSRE
UniProt P78417: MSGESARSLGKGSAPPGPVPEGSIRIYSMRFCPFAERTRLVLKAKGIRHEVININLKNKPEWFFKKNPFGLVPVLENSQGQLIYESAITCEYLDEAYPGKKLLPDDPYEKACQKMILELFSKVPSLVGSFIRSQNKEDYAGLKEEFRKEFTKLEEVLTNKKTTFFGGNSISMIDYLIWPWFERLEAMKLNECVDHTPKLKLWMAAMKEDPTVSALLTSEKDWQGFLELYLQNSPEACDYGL
UniProt Q9UI09: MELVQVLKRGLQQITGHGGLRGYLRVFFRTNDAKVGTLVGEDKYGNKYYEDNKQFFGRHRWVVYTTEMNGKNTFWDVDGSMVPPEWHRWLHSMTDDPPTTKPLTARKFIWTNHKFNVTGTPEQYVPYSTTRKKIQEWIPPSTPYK
UniProt P02775, residues 35-128: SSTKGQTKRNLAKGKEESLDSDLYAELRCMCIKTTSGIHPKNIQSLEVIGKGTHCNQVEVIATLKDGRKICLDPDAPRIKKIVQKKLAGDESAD
UniProt P02743, residues 20-223: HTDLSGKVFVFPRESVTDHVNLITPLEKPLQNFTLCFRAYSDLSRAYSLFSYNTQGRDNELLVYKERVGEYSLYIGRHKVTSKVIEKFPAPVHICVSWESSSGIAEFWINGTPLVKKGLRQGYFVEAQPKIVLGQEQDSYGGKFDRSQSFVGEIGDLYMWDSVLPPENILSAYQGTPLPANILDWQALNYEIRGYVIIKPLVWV
UniProt P07996, residues 19-1170: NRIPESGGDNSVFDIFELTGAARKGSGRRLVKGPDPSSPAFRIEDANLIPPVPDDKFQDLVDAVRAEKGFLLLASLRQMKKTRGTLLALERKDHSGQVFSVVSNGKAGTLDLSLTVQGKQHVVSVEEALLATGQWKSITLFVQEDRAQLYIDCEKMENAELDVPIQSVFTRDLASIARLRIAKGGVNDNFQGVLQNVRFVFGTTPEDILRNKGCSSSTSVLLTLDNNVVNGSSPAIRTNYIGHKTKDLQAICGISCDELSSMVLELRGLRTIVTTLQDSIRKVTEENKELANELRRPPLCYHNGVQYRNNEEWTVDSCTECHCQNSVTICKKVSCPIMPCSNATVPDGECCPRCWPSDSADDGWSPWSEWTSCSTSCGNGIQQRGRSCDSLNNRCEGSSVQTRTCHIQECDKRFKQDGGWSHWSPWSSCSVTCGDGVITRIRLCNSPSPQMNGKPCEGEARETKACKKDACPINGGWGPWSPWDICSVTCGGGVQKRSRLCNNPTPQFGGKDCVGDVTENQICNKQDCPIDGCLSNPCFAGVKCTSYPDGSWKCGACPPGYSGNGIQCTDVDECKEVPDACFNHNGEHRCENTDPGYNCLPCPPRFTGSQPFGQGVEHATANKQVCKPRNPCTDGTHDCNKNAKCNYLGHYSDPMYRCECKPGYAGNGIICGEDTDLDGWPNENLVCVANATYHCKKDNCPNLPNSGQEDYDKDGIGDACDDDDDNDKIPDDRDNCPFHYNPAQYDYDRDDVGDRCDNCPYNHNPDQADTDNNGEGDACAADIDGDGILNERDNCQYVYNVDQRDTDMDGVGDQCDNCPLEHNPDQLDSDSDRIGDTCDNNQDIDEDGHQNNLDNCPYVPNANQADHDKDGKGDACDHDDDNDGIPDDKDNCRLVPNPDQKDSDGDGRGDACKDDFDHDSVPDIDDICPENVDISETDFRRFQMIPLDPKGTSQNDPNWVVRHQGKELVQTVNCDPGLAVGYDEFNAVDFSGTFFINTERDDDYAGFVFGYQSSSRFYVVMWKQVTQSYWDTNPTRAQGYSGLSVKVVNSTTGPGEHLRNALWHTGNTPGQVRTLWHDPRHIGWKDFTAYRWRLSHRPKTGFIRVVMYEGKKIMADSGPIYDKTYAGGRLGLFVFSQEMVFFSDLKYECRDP

Like-named read-outs stand apart in the source and are kept apart here. Results are given in words; binding and its absence hold for the method and conditions named. In cells and extracts the contact can be indirect. Here binding means that the protein was enriched with, or labelled near, the bait; the list need not be complete.

The target in experiment [1] is Parkin (human (endogenous in platelets)) (UniProt O60260). Description: affinity purification with mass spectrometry; IP with Parkin-specific antibodies from human DM platelet lysate; silver-stained gel, 10 bands enriched in DM against HC cut out; in-gel trypsin digestion, LC-MS/MS, Mascot search.
Experiment [2] has the same target. Described as above. This is another data set of the same source.

As to “10 kDa heat shock protein, mitochondrial (from UniProt P61604 1-102)”, in experiment [1], the binding result is “binds”.

On to “14-3-3 protein beta/alpha (from UniProt P31946 1-246)”, for which the binding result in experiment [1] is “binds”.

As to “14-3-3 protein epsilon (from UniProt P62258 1-255)”, the binding entry in experiment [1] is on record as “binds”.

For the molecule “14-3-3 protein zeta/delta (from UniProt P63104 1-245)”, the binding entry in experiment [1] is given as “binds”.

“ATP synthase subunit g, mitochondrial (from UniProt O75964 1-103)”: the binding result in experiment [1] is “binds”.

As for “Acidic leucine-rich nuclear phosphoprotein 32 family member B (from UniProt Q92688 1-251)”, the binding result in experiment [1] was “binds”.

In the case of “Adenylyl cyclase-associated protein 1 (from UniProt Q01518 1-475)”, in experiment [1], the binding entry was “binds”.

In the case of “Amyloid beta A4 protein (from UniProt P05067 18-770)”, the binding entry in experiment [1] is “binds”.

As for “Angiopoietin-rrelated protein 5 (from UniProt Q86XS5 26-388)”, the binding result in experiment [1] was “binds”.

As to “Antithrombin-III (from UniProt P01008 33-464)”, the binding result in experiment [1] is given as “binds”.

On to “Calreticulin (from UniProt P27797 18-417)”, for which the binding result in experiment [1] is “binds”.

“Coagulation factor V (from UniProt P12259 29-2224)”: the binding result in experiment [1] is listed as “binds”.

For “Coagulation factor X (from UniProt P00742 41-488)”, the binding result in experiment [1] is given as “binds”.

As to “Coagulation factor XIII A chain (from UniProt P00488)”, the binding result in experiment [1] is on record as “binds”.

As to “Cytochrome c oxidase subunit 5B, mitochondrial (from UniProt P10606 32-129)”, the binding result in experiment [1] is given as “binds”.

On to “Cytochrome c oxidase subunit NDUFA4 (from UniProt O00483 1-81)”, for which, in experiment [1], the binding entry was “binds”.

As to “DnaJ homolog subfamily A member 2 (from UniProt O60884 1-412)”, the binding entry in experiment [1] is listed as “binds”.

In the case of “Dynein light chain 1, cytoplasmic (from UniProt P63167 1-89)”, the binding entry in experiment [1] is “binds”.

“E3 ubiquitin-protein ligase MYCBP2 (from UniProt O75592 1-4678)”: the binding result in experiment [1] is on record as “binds”.

For the molecule “E3 ubiquitin-protein ligase UBR4 (from UniProt Q5T4S7 1-5183)”, the binding result in experiment [1] is “binds”.

In the case of EMILIN-1 (from UniProt Q9Y6C2 22-1016), the binding result in experiment [1] was “binds”.

On to “Fermitin family homolog 3 (from UniProt Q86UX7 1-667)”, for which the binding entry in experiment [1] is “binds”.

For the molecule “Fibrinogen alpha chain (from UniProt P02671 36-866)”, in experiment [1], the binding result was “binds”.

In the case of “Fibrinogen beta chain (from UniProt P02675 45-491)”, the binding result in experiment [1] is reported as “binds”.

Regarding “Fibrinogen gamma chain (from UniProt P02679 27-453)”, the binding entry in experiment [1] was “binds”.

For the molecule “Fibronectin (from UniProt P02751 32-2477)”, in experiment [1], the binding result is on record as “binds”.

In the case of “Glutathione S-transferase omega-1 (from UniProt P78417 1-241)”, the binding result in experiment [1] is “binds”.

With Huntingtin (from UniProt P42858 1-3142), in experiment [1], the binding entry is given as “binds”.

“Importin subunit beta-1 (from UniProt Q14974 1-876)”: the binding result in experiment [1] is “binds”.

With “Integrin alpha-IIb (from UniProt P08514 32-1039)”, the binding entry in experiment [1] is reported as “binds”.

Take “Integrin beta-1 (from UniProt P05556 21-798)”: the binding result in experiment [1] is on record as “binds”.

Consider “Integrin beta-3 (from UniProt P05106 27-788)”, for which the binding result in experiment [1] was “binds”.

Take “Integrin-linked protein kinase (from UniProt Q13418 1-452)”: in experiment [1], the binding entry was “binds”.

On to “NADH dehydrogenase (ubiquinone)1 alpha subcomplex subunit 12 (from UniProt Q9UI09 1-145)”, for which, in experiment [1], the binding result is “binds”.

“NADH dehydrogenase (ubiquinone) 1 alpha subcomplex subunit 7 (from UniProt O95182 1-113)”: in experiment [1], the binding entry is reported as “binds”.

For “NADH dehydrogenase (ubiquinone) iron–sulfur protein 5 (from UniProt O43920 1-106)”, the binding entry in experiment [1] was “binds”.

Consider “NADH dehydrogenase [ubiquinone] 1 alpha subcomplex subunit 2 (from UniProt O43678 1-99)”, for which, in experiment [1], the binding result was “binds”.

Turning to Nexilin (from UniProt Q0ZGT2 1-675), the binding entry in experiment [1] is “binds”.

Take Plasminogen (from UniProt P00747): in experiment [1], the binding entry was “binds”.

With “Platelet basic protein (from UniProt P02775 35-128)”, the binding result in experiment [1] is “binds”.

As to “Platelet glycoprotein 4 (from UniProt P16671 1-472)”, the binding entry in experiment [1] is given as “binds”.

As to “Proteasome activator complex subunit 1 (from UniProt Q06323 1-249)”, in experiment [1], the binding result is given as “binds”.

“Proteasome activator complex subunit 2 (from UniProt Q9UL46 1-239)”: the binding entry in experiment [1] is recorded as “binds”.

As for “Proteasome subunit beta type-7 (from UniProt Q99436)”, the binding result in experiment [1] is reported as “binds”.

Regarding “Protein S100-A4 (from UniProt P26447 1-101)”, in experiment [1], the binding entry is listed as “binds”.

For the molecule “Protein disulfide-isomerase (from UniProt P07237 18-508)”, in experiment [1], the binding result was “binds”.

For the molecule “Protein disulfide-isomerase A3 (from UniProt P30101 25-505)”, in experiment [1], the binding result was “binds”.

In the case of “Rho-Associated protein kinase 2 (from UniProt O75116 1-1388)”, the binding result in experiment [1] is “binds”.

Consider “Serum amyloid P-component (from UniProt P02743 20-223)”, for which the binding entry in experiment [1] is “binds”.

Take “Signal transducer and activator of transcription 3 (from UniProt P40763 1-770)”: the binding result in experiment [1] is “binds”.

Regarding “Src kinase-associated phosphoprotein 2 (from UniProt O75563 1-359)”, in experiment [1], the binding entry is given as “binds”.

In the case of “Thrombospondin-1 (from UniProt P07996 19-1170)”, in experiment [1], the binding entry was “binds”.

In the case of “Transforming growth factor beta-1 (from UniProt P01137 279-390)”, in experiment [1], the binding entry is on record as “binds”.

With “Transforming growth factor beta-1-induced transcript 1 protein (from UniProt O43294 1-461)”, in experiment [1], the binding entry is recorded as “binds”.

Take “Transitional endoplasmic reticulum ATPase (from UniProt P55072 1-806)”: the binding entry in experiment [1] was “binds”.

For the molecule “Trifunctional enzyme subunit alpha, mitochondrial (from UniProt P40939 37-763)”, the binding result in experiment [1] is reported as “binds”.

As to “Tropomyosin alpha-4 chain (from UniProt P67936 1-248)”, the binding entry in experiment [1] is “binds”.

Regarding “Ubiquitin carboxyl-terminal hydrolase 5 (from UniProt P45974 1-858)”, in experiment [1], the binding result is on record as “binds”.

With “Ubiquitin-Conjugating enzyme E2 N (from UniProt P61088 1-152)”, the binding result in experiment [1] is “binds”.

Regarding “Ubiquitin-Fold modifier 1 (from UniProt P61960 1-85)”, the binding result in experiment [1] is “binds”.

“V-type proton ATPase subunit G 1 (from UniProt O75348 1-118)”: the binding entry in experiment [1] is “binds”.

On to “cAMP-dependent protein kinase type I-alpha regulatory subunit (from UniProt P10644 1-381)”, for which, in experiment [1], the binding result is “binds”.

As for “von Willebrand factor (from UniProt P04275 764-2813)”, the binding result in experiment [1] was “binds”.

B1: Glutathione S-transferase Mu 3 (protein, UniProt P21266 1-225)
chain: MSCESSMVLGYWDIRGLAHAIRLLLEFTDTSYEEKRYTCGEAPDYDRSQWLDVKFKLDLDFPNLPYLLDGKNKITQSNAILRYIARKHNMCGETEEEKIRVDIIENQVMDFRTQLIRLCYSSDHEKLKPQYLEELPGQLKQFSMFLGKFSWFAGEKLTFVDFLTYDILDQNRIFDPKCLDEFPNLKAFMCRFEALEKIAAYLQSDQFCKMPINNKMAQWGNKPVC
B1: the binding entry in experiment [2] is “binds”.
